Patent US20140370024A1 (IMPERIAL INNOVATIONS, published 2014)
No constants are given. Whether binding was seen depends on the method and setting. Some entries that bind do so weakly or less than the wild type. Sequences can lack the tags named with a protein.

Tests used:
[1] = biological target: T1, gC1qR, the receptor of the globular part of the complement protein C1q, from rat brain membrane fractions (rat) (UniProt O35796); test: pull-down of P4 rat brain membrane fractions on a TLQP-21 avidin column, silver staining, LC-MS/MS Orbitrap
T1 sequence (looked up): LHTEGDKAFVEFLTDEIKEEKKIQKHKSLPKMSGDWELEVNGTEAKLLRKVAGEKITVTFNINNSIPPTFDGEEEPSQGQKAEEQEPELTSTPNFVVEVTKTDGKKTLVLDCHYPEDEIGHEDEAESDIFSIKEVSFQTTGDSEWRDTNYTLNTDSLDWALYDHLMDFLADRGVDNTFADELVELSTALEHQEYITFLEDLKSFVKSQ

[2] = biological target: T1, gC1qR, the receptor of the globular part of the complement protein C1q, from rat brain membrane fractions (rat); test: TLQP-21 monomeric avidin column eluates, Western blot for gC1qR
[3] = biological target: T1, gC1qR, the receptor of the globular part of the complement protein C1q, from rat brain membrane fractions (rat); test: pull-down of rat brain membrane fraction on a TLQP-21 monomeric avidin column, SDS-PAGE, silver staining, LC-MS/MS

binding [1]: binds
binding [2]: binds
binding [3]: binds
Binder: TLQPPASSRRRHFHHALPPARC (biotin covalently attached via the amide bond at the N-terminus) [biotin-tagged TLQP-21 attached to a monomeric avidin column]
